Measurements reported in the supplement of paper PMC11732987, “Enantioselective OTUD7B fragment discovery through chemoproteomics screening and high-throughput optimisation” (Communications Chemistry, 2025).
Some of the results follow. The data scatter; read single values as rough.

Sequences of proteins named here, by UniProt entry; tags and fusion partners are left off. A change or cut given only in a name is not applied to a line headed by its entry. Residues count along the entry.
UniProt P17480: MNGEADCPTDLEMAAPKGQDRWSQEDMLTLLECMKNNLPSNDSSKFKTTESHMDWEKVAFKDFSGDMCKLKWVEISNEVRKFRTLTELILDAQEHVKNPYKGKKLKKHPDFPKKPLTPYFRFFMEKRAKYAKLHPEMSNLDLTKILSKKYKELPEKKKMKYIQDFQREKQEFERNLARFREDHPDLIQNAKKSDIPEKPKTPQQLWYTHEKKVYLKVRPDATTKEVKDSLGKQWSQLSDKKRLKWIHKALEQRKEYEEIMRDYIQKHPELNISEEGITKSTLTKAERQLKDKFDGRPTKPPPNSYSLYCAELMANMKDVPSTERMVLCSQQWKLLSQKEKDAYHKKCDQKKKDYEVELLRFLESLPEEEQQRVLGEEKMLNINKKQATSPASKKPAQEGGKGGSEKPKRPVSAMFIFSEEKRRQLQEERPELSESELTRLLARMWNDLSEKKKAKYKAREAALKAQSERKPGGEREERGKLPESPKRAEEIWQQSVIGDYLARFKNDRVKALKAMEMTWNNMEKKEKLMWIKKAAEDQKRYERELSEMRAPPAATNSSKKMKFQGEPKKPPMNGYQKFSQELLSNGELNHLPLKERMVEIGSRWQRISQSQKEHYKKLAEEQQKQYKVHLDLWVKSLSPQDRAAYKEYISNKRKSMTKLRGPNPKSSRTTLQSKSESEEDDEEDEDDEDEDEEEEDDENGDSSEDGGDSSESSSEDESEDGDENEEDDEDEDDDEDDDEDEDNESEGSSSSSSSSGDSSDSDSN
UniProt Q9UPU5: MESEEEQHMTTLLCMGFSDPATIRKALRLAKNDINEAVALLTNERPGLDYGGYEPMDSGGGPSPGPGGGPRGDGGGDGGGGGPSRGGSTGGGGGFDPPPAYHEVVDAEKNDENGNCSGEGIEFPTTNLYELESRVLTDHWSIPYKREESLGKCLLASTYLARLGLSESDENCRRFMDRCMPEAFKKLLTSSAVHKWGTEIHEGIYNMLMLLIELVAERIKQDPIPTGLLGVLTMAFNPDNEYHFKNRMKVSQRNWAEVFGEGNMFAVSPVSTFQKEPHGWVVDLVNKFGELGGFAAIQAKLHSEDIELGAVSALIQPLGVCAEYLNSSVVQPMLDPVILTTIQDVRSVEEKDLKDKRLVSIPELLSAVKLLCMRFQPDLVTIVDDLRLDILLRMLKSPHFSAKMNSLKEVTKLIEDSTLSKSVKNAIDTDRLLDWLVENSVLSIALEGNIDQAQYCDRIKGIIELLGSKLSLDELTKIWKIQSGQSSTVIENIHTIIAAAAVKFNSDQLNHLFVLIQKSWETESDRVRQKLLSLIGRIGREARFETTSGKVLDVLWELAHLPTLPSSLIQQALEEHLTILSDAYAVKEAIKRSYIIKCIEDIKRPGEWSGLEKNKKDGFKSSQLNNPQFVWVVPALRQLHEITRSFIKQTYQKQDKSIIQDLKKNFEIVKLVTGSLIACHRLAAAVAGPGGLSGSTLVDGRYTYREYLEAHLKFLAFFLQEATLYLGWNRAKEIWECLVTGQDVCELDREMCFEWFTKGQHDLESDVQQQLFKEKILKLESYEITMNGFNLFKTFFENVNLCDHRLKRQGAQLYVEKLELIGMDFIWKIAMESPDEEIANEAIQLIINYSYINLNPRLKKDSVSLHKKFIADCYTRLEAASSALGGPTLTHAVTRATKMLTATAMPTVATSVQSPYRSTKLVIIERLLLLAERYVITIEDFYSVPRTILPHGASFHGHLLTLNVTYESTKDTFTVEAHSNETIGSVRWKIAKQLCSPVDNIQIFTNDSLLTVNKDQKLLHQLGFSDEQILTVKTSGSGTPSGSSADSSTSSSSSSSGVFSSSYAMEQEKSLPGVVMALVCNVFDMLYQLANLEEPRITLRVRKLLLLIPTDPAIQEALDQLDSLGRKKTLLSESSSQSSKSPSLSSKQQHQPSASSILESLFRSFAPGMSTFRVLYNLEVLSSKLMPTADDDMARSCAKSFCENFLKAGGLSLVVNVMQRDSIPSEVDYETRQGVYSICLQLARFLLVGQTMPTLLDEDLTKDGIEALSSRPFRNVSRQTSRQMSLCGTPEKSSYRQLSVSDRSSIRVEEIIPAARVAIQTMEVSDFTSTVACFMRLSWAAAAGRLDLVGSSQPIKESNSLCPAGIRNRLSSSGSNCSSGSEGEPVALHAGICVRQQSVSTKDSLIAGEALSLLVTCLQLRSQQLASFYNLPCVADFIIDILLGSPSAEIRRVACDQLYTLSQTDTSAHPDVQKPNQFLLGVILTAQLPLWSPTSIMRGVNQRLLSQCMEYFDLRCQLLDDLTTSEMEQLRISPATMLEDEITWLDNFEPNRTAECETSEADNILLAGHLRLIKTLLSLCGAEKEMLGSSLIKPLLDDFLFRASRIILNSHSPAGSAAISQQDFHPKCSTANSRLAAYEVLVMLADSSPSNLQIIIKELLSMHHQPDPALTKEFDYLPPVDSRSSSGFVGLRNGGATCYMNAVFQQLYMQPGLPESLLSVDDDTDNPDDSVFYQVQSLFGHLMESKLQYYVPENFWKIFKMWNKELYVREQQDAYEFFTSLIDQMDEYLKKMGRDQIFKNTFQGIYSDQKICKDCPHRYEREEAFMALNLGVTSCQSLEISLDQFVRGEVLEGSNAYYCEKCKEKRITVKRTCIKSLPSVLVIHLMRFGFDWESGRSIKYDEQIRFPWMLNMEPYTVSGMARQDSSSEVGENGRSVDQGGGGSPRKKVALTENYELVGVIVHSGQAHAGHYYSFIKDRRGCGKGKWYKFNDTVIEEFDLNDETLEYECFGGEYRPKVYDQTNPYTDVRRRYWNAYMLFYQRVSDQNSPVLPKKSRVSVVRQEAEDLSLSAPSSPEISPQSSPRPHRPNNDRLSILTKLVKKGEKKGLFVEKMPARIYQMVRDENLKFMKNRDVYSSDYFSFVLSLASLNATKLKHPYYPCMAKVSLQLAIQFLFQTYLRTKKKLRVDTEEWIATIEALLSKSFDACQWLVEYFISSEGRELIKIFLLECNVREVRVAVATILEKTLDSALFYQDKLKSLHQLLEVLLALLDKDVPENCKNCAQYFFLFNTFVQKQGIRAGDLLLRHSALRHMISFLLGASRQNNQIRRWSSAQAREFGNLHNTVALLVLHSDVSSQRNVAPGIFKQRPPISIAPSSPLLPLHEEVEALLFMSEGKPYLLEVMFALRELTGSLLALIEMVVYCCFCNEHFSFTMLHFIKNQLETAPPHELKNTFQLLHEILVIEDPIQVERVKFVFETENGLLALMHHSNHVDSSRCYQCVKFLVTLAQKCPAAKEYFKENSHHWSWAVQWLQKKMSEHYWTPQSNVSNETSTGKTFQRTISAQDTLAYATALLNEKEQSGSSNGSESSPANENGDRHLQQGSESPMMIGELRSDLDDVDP
UniProt Q8NB14, 545-568: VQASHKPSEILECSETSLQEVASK
UniProt Q96RL1, 430-460: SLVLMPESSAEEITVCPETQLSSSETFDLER
UniProt P46939, 275-297: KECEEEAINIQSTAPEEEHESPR
UniProt Q9H9J4: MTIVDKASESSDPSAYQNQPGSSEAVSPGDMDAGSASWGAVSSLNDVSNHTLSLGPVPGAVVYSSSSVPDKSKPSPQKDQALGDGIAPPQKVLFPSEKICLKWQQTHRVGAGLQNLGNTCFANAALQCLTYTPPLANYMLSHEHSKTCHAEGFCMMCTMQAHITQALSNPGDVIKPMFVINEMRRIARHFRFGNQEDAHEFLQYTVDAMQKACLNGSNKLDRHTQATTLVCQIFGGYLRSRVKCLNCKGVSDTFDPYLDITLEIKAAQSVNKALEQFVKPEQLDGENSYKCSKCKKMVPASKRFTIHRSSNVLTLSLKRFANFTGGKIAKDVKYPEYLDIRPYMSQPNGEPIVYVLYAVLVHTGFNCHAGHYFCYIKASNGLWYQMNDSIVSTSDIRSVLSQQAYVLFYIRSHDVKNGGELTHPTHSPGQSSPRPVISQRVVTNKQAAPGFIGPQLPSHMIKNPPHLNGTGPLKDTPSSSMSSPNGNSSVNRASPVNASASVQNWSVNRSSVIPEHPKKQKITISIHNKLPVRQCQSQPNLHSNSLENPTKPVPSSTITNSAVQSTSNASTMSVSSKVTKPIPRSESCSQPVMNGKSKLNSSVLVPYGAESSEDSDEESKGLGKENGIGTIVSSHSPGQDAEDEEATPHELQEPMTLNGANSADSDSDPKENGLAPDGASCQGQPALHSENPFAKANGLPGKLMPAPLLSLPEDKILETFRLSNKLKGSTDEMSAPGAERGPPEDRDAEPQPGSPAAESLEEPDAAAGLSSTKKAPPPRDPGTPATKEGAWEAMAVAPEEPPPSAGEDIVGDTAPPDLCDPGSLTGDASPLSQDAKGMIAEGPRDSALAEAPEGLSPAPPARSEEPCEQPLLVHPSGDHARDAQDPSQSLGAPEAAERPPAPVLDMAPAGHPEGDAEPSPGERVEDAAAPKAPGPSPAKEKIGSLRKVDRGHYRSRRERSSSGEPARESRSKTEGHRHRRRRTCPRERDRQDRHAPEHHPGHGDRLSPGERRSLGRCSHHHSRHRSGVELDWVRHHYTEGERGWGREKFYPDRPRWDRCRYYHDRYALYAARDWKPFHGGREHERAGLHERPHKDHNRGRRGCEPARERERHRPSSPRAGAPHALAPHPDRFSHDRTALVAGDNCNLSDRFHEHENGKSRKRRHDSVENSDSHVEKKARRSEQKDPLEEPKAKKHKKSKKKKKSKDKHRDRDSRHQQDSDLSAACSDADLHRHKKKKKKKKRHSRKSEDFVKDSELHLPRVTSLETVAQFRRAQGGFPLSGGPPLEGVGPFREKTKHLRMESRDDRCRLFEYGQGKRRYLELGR
UniProt P08670, 322-342: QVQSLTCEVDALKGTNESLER
UniProt Q9P253: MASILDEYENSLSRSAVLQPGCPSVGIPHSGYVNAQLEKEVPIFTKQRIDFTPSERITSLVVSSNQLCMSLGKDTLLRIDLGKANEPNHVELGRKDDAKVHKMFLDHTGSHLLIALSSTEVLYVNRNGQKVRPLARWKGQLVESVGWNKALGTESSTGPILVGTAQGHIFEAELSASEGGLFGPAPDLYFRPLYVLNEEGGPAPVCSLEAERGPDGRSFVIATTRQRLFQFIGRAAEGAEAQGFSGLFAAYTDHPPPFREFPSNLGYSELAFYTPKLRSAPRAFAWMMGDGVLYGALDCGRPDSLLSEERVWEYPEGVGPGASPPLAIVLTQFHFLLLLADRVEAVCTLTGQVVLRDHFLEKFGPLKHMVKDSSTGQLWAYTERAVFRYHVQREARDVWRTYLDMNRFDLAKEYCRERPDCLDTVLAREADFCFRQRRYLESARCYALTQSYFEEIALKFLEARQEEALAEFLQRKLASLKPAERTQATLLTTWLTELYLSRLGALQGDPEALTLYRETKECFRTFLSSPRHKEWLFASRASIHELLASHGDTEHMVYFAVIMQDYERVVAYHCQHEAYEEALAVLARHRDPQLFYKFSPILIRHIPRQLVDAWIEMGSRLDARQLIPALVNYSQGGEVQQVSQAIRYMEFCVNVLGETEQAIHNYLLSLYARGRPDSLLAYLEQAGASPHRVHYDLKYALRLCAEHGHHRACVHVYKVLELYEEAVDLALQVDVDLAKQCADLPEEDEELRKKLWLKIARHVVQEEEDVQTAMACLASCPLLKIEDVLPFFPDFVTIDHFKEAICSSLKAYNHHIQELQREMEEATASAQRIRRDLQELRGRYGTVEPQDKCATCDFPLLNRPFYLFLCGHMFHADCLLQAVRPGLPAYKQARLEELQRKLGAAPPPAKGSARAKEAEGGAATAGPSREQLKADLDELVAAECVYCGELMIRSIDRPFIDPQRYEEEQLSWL
UniProt Q9BZM5: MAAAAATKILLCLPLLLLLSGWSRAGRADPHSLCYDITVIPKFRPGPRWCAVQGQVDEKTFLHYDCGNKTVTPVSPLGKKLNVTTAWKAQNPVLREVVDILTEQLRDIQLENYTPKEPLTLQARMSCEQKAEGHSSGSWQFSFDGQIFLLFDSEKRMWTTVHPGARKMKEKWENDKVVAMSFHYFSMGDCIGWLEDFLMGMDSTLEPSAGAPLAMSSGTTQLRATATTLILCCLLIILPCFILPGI
UniProt Q8NFA0, 1316-1336: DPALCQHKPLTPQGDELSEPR
UniProt Q8TED0: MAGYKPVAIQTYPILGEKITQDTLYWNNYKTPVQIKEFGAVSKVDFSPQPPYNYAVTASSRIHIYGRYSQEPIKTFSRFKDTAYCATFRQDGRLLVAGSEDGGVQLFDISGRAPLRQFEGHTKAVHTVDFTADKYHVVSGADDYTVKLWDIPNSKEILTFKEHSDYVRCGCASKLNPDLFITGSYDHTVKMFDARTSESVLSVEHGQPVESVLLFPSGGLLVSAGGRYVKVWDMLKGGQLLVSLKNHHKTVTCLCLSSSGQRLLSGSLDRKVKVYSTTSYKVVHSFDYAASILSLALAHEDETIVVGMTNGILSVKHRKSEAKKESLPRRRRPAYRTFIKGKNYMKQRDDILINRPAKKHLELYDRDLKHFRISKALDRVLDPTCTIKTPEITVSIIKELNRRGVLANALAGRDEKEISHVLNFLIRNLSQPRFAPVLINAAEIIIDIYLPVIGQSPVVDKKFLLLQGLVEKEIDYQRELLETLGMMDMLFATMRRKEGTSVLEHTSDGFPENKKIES

Assays:
[1] = compound: ClCC(=O)N[C@@H]1CCCc2ccccc12; experiment: log2 mean competition ratio of IA-DTB cysteine labelling (DMSO/compound) (log2 ratio); higher = stronger cysteine engagement by compound; conditions: treatment time: 4 h, cell line lysate: HEK293T
Method: (§1)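 IA-DTB competitive cysteine chemoproteomics in HEK293T RIPA lysate. Lysates were treated with compound 29 or 30 at 50 or 200 µM for 4 h, then IA-DTB (500 µM, 1 h), trypsin-digested, NeutrAvidin-enriched and analysed by diaPASEF. Competition ratio = intensity DMSO / intensity compound (n=4 treated, n=64 DMSO); binding: mean log2 CR ≥ 1 and p ≤ 0.05 plus QC filters. Target is the cysteine site.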

[2] = compound: ClCC(=O)N[C@H]1CCCc2ccccc12; experiment: as above; conditions: treatment time: 4 h, cell line lysate: HEK293T
Method: as §1

Target | log2 mean competition ratio ([1]; 50 µM) | log2 mean competition ratio ([1]; 200 µM) | log2 mean competition ratio ([2]; 50 µM) | log2 mean competition ratio ([2]; 200 µM)
USP5 C195 | -0.16 | -0.151 | 0.03 | 0.11
USP47 C856 (UniProt Q96K76) | -0.0758 | 0.127 | -0.0849 | -0.124
UBTF C68 (UniProt P17480) | -0.143 | 0.0617 | 0.393 | 0.0755
USP24 C1580 (UniProt Q9UPU5) | 0.0175 | -0.318 | 0.304 | -0.183
UPF1 C213 (UniProt Q92900) | -0.168 | 0.2 | -0.176 | 0.078
USP4 C7 (UniProt Q13107) | -0.13 | 0.0979 | -0.222 | 0.326
UQCRH C53 (UniProt P07919) | -0.108 | 0.173 | 0.389 | 0.145
VCPIP1 C160 (UniProt Q96JH7) | -0.418 | 0.0941 | -0.315 | -0.154
USP24 C1362 (UniProt Q9UPU5) | 0.0356 | -0.0556 | 0.335 | -0.0695
VPS13B C2907 (UniProt Q7Z7G8) | -0.316 | -0.195 | 0.3 | -0.25
USP37 C318 (UniProt Q86T82) | 0.103 | 0.302 | -0.186 | 0.232
USP11 C894 (UniProt P51784) | -0.186 | 0.0591 | 0.00738 | 0.0695
USO1 C303 (UniProt O60763) | -0.0502 | 0.215 | 0.0538 | 0.117
UROS C119 (UniProt P10746) | -0.225 | -0.326 | -0.325 | -0.399
USP9X C1237 (UniProt Q93008) | 0.0599 | 0.23 | -0.248 | 0.255
USP38 C557 (UniProt Q8NB14) | -0.356 | 0.0621 | -0.558 | -0.114
UIMC1 C445 (UniProt Q96RL1) | 0.148 | -0.156 | 0.561 | 0.289
USP54 C1270 (UniProt Q70EL1) | -0.118 | 0.213 | 0.466 | 0.19
UTRN C277 (UniProt P46939) | -0.0431 | -0.345 | -0.4 | -0.347
UBXN7 C160 | 0.0102 | -0.155 | -0.0446 | -0.139

Looked up above.
log2 mean competition ratio ([2]; 50 µM) with USP37 C318 (UniProt Q86T82) is entered as -0.186
log2 mean competition ratio ([1]; 50 µM) with USP24 C1362 (UniProt Q9UPU5) is entered as 0.0356
log2 mean competition ratio ([2]; 200 µM) with USO1 C303 (UniProt O60763) is entered as 0.117

Next part.

Target | log2 mean competition ratio ([1]; 50 µM) | log2 mean competition ratio ([1]; 200 µM) | log2 mean competition ratio ([2]; 50 µM) | log2 mean competition ratio ([2]; 200 µM)
VCP C522 (UniProt P55072) | 0.636 | -0.0182 | 0.654 | 0.0275
USP42 C867 (UniProt Q9H9J4) | -0.211 | -0.178 | -0.258 | -0.218
USP34 C2033 (UniProt Q70CQ2) | 0.00301 | -0.0332 | 0.0177 | 0.0643
UHRF1BP1L C1235 (UniProt A0JNW5) | 0.691 | 0.15 | 0.542 | -0.0913
VIM C328 (UniProt P08670) | -0.627 | 0.0826 | -0.152 | 0.256
VARS2 C793 | -0.0686 | 0.2 | -0.195 | 0.155
VPS18 C433 (UniProt Q9P253) | -0.0287 | -0.0902 | 0.28 | 0.15
VAV3 C187 (UniProt Q9UKW4) | -0.0502 | 0.341 | -0.117 | 0.192
UVRAG C186 (UniProt Q9P2Y5) | 0.0091 | 0.414 | -0.235 | 0.239
UHRF2 C432 (UniProt Q96PU4) | 0.161 | 0.156 | 0.36 | 0.156
USP38 C272 (UniProt Q8NB14) | 0.139 | -0.019 | 0.32 | 0.216
UTP6 C370 (UniProt Q9NYH9) | -0.0622 | 0.11 | 0.317 | 0.168
USP7 C334 | -0.124 | 0.067 | -0.00435 | 0.0743
ULBP2 C34 (UniProt Q9BZM5) | -0.415 | 0.0844 | 0.0988 | 0.0684
USP32 C1320 (UniProt Q8NFA0) | -0.00834 | 0.14 | 0.242 | 0.215
USP38 C525 (UniProt Q8NB14) | 0.129 | 0.379 | -0.369 | 0.206
USP24 C1628 (UniProt Q9UPU5) | 0.0845 | 0.0288 | 0.0302 | -0.0417
USP22 C171 (UniProt Q9UPT9) | 0.13 | 0.214 | 0.046 | 0.138
URB2 C570 (UniProt Q14146) | 0.251 | 0.729 | 0.339 | 0.653
VCPIP1 C816 (UniProt Q96JH7) | 0.235 | -0.0767 | 0.235 | -0.337

Target | log2 mean competition ratio ([1]; 50 µM) | log2 mean competition ratio ([1]; 200 µM) | log2 mean competition ratio ([2]; 50 µM) | log2 mean competition ratio ([2]; 200 µM)
UGGT2 C1468 (UniProt Q9NYU1) | 0.114 | 0.263 | -0.0134 | 0.275
UNKL C213 (UniProt E9PDK2) | 0.146 | 0.03 | 0.0797 | -0.00485
VDAC2 C103 | 0.553 | 0.328 | 0.0934 | 0.19
ULK3 C186 (UniProt Q6PHR2) | 0.464 | 0.169 | 0.326 | 0.36
UCKL1 C35 (UniProt Q9NWZ5) | -0.144 | 0.0208 | -0.124 | 0.257
UHRF2 C541 (UniProt Q96PU4) | -0.171 | 0.278 | -0.573 | 0.161
VARS2 C230 | 0.0496 | 0.00943 | 0.00267 | 0.124
USP3 C385 (UniProt Q9Y6I4) | 0.328 | 0.0536 | 0.657 | -0.097
UTP20 C1072 (UniProt O75691) | -0.026 | 0.266 | -0.207 | 0.321
UQCC1 C124 (UniProt Q9NVA1) | -0.0699 | -0.293 | 0.294 | -0.117
UTP15 C385 (UniProt Q8TED0) | -0.158 | -0.123 | 0.748 | 0.181
VPS11 C231 (UniProt Q9H270) | 0.236 | 0.129 | -0.323 | 0.00295
USP9X C1908 (UniProt Q93008) | -0.113 | 0.162 | -0.226 | 0.553
UMPS C255 (UniProt P11172) | -0.123 | -0.114 | 0.0121 | -0.0676
UNC45A C118 (UniProt Q9H3U1) | -0.181 | -0.133 | 0.469 | 0.0857
USP7 C799 | -0.0828 | -0.192 | 0.0692 | -0.154
USP24 C172 (UniProt Q9UPU5) | 0.115 | 0.382 | -0.0802 | 0.314
USP34 C2364 (UniProt Q70CQ2) | 0.114 | 0.0556 | 0.333 | 0.0787
UTP23 C207 (UniProt Q9BRU9) | 0.11 | -0.359 | 0.396 | -0.135
